# From the supplement of paper PMC7666118
# Protein sequences, listed by entry. Tags and fused reporters are not part of them. Lines headed by an entry give the natural chain unless they say otherwise; changes in a name come on top.
# UniProt P51608, whole entry: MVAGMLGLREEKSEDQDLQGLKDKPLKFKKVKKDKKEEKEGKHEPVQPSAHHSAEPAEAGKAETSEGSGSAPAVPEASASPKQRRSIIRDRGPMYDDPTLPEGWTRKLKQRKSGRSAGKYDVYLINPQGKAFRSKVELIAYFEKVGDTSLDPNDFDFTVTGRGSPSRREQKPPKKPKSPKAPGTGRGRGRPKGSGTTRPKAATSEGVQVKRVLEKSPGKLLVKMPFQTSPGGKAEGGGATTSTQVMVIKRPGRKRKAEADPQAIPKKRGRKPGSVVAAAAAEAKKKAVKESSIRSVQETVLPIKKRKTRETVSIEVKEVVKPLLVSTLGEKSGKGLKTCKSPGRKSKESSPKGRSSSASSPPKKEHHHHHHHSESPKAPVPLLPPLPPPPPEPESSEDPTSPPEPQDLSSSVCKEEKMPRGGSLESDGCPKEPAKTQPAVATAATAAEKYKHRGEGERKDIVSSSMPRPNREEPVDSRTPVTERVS
# UniProt Q68DK7: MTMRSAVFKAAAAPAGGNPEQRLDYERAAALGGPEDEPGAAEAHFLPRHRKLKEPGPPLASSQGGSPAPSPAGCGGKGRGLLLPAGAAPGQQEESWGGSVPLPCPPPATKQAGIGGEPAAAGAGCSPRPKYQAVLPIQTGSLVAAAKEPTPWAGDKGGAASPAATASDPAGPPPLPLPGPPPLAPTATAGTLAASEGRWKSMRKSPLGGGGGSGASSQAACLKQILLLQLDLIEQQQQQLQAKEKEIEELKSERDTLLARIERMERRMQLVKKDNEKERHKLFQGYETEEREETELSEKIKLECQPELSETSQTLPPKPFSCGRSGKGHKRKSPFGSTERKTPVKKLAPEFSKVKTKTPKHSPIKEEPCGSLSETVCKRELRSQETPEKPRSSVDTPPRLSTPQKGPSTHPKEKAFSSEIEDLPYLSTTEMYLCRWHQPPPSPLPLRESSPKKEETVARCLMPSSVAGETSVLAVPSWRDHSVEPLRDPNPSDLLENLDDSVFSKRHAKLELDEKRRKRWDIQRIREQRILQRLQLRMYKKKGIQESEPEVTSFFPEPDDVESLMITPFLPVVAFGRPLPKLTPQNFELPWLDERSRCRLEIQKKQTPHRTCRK
# UniProt P30533, whole entry: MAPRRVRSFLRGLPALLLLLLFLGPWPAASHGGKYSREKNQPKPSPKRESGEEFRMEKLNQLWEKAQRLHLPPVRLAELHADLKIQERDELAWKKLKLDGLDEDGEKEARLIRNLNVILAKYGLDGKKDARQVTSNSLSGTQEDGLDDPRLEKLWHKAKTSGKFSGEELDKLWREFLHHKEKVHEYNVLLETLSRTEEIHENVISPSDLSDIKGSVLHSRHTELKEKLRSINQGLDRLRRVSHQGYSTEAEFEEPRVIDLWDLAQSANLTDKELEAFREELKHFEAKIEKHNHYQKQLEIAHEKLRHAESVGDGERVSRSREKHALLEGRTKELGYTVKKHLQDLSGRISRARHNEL
# UniProt Q9NRN9: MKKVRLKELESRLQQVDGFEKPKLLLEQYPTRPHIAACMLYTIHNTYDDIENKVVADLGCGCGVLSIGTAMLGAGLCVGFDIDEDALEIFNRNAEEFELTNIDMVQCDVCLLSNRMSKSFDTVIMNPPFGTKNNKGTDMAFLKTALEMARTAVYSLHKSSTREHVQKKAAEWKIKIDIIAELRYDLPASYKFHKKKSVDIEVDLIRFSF
# UniProt Q9BTT4: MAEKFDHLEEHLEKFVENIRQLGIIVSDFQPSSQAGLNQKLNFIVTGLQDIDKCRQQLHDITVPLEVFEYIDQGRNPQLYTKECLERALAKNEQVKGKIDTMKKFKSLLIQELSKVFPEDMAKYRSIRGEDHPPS
# UniProt Q9UI95, whole entry: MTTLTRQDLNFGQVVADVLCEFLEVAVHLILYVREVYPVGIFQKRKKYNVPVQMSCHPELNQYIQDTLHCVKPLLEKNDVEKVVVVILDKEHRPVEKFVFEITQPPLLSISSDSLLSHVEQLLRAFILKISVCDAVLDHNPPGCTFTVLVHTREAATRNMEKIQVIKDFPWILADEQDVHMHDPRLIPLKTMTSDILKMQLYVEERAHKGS
# UniProt P26038, whole entry: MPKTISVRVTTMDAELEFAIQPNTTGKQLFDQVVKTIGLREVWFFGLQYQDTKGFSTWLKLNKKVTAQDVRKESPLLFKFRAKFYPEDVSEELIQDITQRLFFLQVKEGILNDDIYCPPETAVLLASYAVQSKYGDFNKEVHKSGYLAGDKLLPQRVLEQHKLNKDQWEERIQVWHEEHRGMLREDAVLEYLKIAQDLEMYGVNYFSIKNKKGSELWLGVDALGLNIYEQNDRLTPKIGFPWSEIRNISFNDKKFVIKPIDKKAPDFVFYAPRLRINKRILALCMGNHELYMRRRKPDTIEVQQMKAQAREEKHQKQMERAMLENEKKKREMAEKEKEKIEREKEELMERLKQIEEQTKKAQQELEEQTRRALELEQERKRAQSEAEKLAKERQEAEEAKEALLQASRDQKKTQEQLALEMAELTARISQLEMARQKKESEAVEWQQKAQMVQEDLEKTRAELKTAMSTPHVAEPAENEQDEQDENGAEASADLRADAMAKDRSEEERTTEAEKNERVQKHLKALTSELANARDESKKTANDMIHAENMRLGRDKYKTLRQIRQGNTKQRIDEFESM
# UniProt Q92585: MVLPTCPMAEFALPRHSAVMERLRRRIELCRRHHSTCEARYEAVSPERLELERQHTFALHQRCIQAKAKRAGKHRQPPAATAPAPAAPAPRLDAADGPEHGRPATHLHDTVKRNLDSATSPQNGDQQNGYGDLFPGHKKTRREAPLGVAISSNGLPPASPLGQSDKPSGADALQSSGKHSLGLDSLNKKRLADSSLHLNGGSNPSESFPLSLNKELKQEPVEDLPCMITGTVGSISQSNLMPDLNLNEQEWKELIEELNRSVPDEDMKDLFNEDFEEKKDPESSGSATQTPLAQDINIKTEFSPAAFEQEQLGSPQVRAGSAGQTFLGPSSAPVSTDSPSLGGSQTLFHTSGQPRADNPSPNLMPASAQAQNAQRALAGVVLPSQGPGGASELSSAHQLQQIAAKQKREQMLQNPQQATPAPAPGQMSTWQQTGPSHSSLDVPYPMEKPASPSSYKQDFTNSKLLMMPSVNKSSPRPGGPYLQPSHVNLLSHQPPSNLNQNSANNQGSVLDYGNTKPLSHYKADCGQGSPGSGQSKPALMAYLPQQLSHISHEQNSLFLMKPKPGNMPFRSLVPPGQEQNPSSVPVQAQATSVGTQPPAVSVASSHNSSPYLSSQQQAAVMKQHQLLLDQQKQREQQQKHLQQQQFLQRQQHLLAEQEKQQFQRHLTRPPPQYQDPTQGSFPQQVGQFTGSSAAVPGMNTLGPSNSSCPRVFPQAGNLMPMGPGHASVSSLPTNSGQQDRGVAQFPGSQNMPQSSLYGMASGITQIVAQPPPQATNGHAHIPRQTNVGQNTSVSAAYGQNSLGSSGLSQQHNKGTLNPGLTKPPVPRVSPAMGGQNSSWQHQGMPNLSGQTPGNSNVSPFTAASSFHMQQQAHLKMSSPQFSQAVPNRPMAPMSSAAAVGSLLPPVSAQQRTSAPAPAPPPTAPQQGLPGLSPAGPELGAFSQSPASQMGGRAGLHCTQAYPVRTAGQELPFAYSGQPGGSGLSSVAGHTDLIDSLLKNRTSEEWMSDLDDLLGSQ
# UniProt P02788: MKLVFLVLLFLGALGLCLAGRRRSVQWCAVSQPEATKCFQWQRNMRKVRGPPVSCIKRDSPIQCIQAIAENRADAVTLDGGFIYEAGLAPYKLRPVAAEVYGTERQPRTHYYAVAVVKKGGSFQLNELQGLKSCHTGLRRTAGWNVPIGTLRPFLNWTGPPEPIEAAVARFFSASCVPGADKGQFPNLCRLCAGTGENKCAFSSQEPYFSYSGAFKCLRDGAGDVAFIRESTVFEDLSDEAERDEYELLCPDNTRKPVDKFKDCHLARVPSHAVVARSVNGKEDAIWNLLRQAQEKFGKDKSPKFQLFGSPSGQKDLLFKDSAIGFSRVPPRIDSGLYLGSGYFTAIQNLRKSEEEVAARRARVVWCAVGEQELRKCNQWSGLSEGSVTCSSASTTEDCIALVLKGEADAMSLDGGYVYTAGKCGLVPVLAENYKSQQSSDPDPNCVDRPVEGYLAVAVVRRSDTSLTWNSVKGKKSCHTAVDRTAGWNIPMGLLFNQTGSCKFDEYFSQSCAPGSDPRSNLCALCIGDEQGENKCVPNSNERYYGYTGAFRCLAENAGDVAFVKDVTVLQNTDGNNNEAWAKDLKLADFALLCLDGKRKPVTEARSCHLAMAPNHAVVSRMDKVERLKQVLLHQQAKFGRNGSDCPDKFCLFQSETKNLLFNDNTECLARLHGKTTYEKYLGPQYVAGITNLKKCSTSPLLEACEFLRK
# UniProt Q99417: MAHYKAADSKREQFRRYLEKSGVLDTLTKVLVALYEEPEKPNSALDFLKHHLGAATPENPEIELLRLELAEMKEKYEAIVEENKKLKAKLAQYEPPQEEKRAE
# UniProt P40926: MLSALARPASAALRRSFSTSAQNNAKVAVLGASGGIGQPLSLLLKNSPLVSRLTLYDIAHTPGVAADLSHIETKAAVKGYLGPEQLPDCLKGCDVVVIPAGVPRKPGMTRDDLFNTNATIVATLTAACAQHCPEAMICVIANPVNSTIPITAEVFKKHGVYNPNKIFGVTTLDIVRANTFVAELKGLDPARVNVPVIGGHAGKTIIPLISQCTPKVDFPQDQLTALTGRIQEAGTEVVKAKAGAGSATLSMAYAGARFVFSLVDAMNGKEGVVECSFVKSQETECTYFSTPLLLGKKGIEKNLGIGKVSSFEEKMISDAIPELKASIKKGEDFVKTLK
# UniProt Q2M296: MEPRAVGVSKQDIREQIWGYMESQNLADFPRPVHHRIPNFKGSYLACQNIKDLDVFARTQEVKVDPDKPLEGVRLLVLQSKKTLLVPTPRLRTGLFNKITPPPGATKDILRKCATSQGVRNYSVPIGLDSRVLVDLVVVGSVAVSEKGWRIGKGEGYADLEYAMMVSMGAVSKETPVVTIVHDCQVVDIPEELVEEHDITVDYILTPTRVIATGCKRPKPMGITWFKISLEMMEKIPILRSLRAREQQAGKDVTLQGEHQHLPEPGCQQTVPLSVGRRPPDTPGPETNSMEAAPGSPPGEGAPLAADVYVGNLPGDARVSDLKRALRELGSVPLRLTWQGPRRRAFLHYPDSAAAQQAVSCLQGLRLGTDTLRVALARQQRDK
# UniProt P62310: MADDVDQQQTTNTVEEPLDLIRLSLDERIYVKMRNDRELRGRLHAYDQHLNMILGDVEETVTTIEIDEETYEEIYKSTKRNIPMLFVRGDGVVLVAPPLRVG
# UniProt O14950, whole entry: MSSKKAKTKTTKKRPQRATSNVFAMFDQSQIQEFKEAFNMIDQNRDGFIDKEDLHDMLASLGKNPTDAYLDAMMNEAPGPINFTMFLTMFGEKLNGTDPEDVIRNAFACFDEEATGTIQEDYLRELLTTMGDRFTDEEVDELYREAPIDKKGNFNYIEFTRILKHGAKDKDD
# UniProt P49736, whole entry: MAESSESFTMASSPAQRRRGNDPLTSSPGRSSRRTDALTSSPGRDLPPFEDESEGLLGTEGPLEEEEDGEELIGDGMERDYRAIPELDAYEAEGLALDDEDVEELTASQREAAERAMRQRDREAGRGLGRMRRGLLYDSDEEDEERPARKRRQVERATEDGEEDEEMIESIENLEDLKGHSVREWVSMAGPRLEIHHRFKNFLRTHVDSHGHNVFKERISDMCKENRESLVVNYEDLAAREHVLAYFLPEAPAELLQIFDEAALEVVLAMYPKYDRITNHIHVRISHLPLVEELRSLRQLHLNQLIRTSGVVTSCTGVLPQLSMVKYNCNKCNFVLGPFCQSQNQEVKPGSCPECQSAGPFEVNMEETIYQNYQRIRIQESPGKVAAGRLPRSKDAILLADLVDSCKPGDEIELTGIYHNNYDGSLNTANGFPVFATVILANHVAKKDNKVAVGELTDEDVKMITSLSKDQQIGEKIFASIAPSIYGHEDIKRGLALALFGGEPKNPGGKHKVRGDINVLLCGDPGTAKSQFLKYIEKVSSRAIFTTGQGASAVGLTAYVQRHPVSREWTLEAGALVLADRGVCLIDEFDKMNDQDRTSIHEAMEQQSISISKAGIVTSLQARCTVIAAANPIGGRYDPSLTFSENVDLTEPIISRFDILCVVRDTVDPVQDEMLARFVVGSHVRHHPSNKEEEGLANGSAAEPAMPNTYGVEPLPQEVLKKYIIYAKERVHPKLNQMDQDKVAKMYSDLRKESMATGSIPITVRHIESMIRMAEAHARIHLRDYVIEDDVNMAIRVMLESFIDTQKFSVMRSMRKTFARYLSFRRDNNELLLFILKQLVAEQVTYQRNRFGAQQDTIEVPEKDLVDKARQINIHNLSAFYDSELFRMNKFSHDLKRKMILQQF
# UniProt O95777: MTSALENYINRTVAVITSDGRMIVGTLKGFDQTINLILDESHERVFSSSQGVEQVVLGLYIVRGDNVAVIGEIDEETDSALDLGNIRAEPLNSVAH
# UniProt Q9BRT3: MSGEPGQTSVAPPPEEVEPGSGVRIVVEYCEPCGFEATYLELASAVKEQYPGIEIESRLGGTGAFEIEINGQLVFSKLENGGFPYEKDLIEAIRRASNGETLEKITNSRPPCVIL
# The list shows a part of the results.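 How the source made its calls: active = dose-dependent thermal stabilisation significant by F-test of dose-response against flat model at 10% FDR; inactive = not significant.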
# Compound: Nc1nc2c(ncn2[C@@H]2O[C@H](COP(=O)(O)OP(=O)(O)OP(=O)(O)O)[C@@H](O)[C@H]2O)c(=O)[nH]1
# Assay: dose-dependent thermal stabilisation call (2D-TPP, DLPTP, 10% FDR) (binary (1 = stabilised)); higher = stabilised by the compound
# Details: system: Jurkat gel-filtered lysate; concentration range 1-500 µM
row,Target,dose-dependent thermal stabilisation call
1,MECP2 (UniProt P51608),inactive: 0
2,MSL1 (UniProt Q68DK7),inactive: 0
3,LRPAP1 (UniProt P30533),inactive: 0
4,LRRC58 (UniProt Q96CX6),inactive: 0
5,METTL5 (UniProt Q9NRN9),inactive: 0
6,MED6 (UniProt O75586),inactive: 0
7,MLLT1 (UniProt Q03111),inactive: 0
8,MED10 (UniProt Q9BTT4),inactive: 0
9,MAVS (UniProt Q7Z434),inactive: 0
10,MAD2L2 (UniProt Q9UI95),inactive: 0
11,LTA4H (UniProt P09960),inactive: 0
12,MSN (UniProt P26038),inactive: 0
13,MAML1 (UniProt Q92585),inactive: 0
14,MAP2K2 (UniProt P36507),active: 1
15,MYL6B (UniProt P14649),inactive: 0
16,LTF (UniProt P02788),inactive: 0
17,MAPK3 (UniProt P27361),inactive: 0
18,MYCBP (UniProt Q99417),inactive: 0
19,MACROD1 (UniProt Q9BQ69),inactive: 0

row,Target,dose-dependent thermal stabilisation call
1,MDH2 (UniProt P40926),active: 1
2,MARS (UniProt P56192),inactive: 0
3,LSM2 (UniProt Q9Y333),inactive: 0
4,MAEA (UniProt Q7L5Y9),inactive: 0
5,MYOM2 (UniProt P54296),inactive: 0
6,MTHFSD (UniProt Q2M296),active: 1
7,LSM5 (UniProt Q9Y4Y9),inactive: 0
8,LRRC40 (UniProt Q9H9A6),active: 1
9,LSM3 (UniProt P62310),inactive: 0
10,LRSAM1 (UniProt Q6UWE0),inactive: 0
11,MORC3 (UniProt Q14149),inactive: 0
12,LSP1 (UniProt P33241),inactive: 0
13,MYL12B (UniProt O14950),inactive: 0
14,MCM2 (UniProt P49736),inactive: 0
15,LSM8 (UniProt O95777),inactive: 0
16,MIEN1 (UniProt Q9BRT3),inactive: 0
17,MVB12A (UniProt Q96EY5),active: 1
18,MBTD1 (UniProt Q05BQ5),inactive: 0

# A different layout for part of the listing above.
row	Target	dose-dependent thermal stabilisation call
12	LSP1 (UniProt P33241)	inactive: 0
13	MYL12B (UniProt O14950)	inactive: 0
14	MCM2 (UniProt P49736)	inactive: 0
